Measurements reported in PubChem BioAssay AID1259308 (NCATS, 2017)
Here is an unselected part of about 59,000 reagents. About 1,510 of them (2.6%) were called active. 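Calls use total luciferase alone and ignore viability, so some active siRNAs may act by altering cell number.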 Reagents against one gene are numbered here. No sequences are given here.

Screen: 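Knock-downs that increase output of a recombinant reporter protein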 (primary screen)
System: human HEK293 embryonic kidney cells stably expressing firefly luciferase (HEK-CMV-Luc2-Hygro)
Knock-down reagent: single siRNA against human genes, 0.8 pmol siRNA per well
Time to read-out: 72 h
Detection: 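Luciferase light (ONE-Glo) measured on one replicate plate set and viability (CellTiter-Glo) on the other, scaled to a negative control siRNA, with robust z-scores and luciferase per cell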
Reading the numbers: total luciferase, z-score and total luciferase, % of control: higher = more reporter protein produced; luciferase per cell, z-score: higher = more reporter output per viable cell; viable cells, % of control: higher = more viable cells
Hit rule: 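Active when the median/MAD z-score for overall luciferase is greater than 3; a gene was taken forward for validation with new siRNAs if at least two of its three siRNAs passed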
Calls: active = raised luciferase; inactive = no rise

gene	reagent no.	total luciferase, z-score	total luciferase, % of control	luciferase per cell, z-score	viable cells, % of control	outcome
IGDCC3	1	-1.19	58.2	-0.556	75.2	inactive
IGDCC3	2	-2.62	29.7	-1.02	43.4	inactive
IGDCC3	3	0.231	86.5	0.114	93.8	inactive
SPRED1	1	0.565	93.1	0.309	95.9	inactive
SPRED1	2	-0.563	70.7	-0.605	92.6	inactive
SPRED1	3	1.47	111	0.464	110	inactive
RNF187	1	1.12	104	0.882	92.2	inactive
RNF187	2	2.96	141	2.86	74	inactive
RNF187	3	0.739	96.6	0.472	95.3	inactive
EEIG1	1	3	142	3.31	66.1	active
EEIG1	2	0.235	86.6	0.13	93.5	inactive
EEIG1	3	3.52	152	1.8	106	active
MBD1	1	0.804	97.9	0.888	86.6	inactive
MBD1	2	-0.151	78.9	-0.185	92.5	inactive
MBD1	3	-2.17	38.8	-2.36	80.7	inactive
PJA2	1	0.992	102	2.48	59.2	inactive
PJA2	2	0.0368	82.6	0.361	84	inactive
PJA2	3	-0.214	77.6	0.652	73.1	inactive
INMT	1	0.581	93.4	0.765	85.4	inactive
INMT	2	2.02	122	0.813	110	inactive
INMT	3	-2.54	31.3	-3.14	80.1	inactive
MTOR	1	-1.33	55.5	-0.681	74.2	inactive
MTOR	2	-1.55	51.1	-1.85	92.8	inactive
MTOR	3	-0.584	70.3	-0.412	87.5	inactive
AIFM3	1	-2.02	41.6	-1.06	61.5	inactive
AIFM3	2	0.987	102	0.686	94.7	inactive
AIFM3	3	-2.66	28.9	-2.82	67.9	inactive
ZNF354A	1	1.26	107	0.799	96.9	inactive
ZNF354A	2	0.16	85.1	0.198	90.2	inactive
ZNF354A	3	0.838	98.6	-0.163	115	inactive
S100A12	1	-0.699	68	0.00738	75.8	inactive
S100A12	2	0.624	94.3	0.561	90.9	inactive
S100A12	3	0.516	92.2	1.14	76.3	inactive
CHLSN	1	0.567	93.2	0.352	94.9	inactive
CHLSN	2	-0.414	73.6	-0.106	84.6	inactive
CHLSN	3	-0.126	79.4	0.00548	88.6	inactive
DPPA5	1	1.48	111	1.33	87.5	inactive
DPPA5	2	0.445	90.7	0.472	89.6	inactive
DPPA5	3	0.387	89.6	-0.395	111	inactive
MED13L	1	1.08	103	0.918	90.6	inactive
MED13L	2	-1.83	45.6	-1.6	77.6	inactive
MED13L	3	-0.985	62.3	-0.441	78.2	inactive
C15orf62	1	0.47	91.2	0.303	94.1	inactive
C15orf62	2	0.176	85.4	-0.0765	97.4	inactive
C15orf62	3	0.97	101	1.1	84.6	inactive
PRDX2	1	-0.107	79.8	-0.112	91.8	inactive
PRDX2	2	0.919	100	0.662	94	inactive
PRDX2	3	-0.221	77.5	-0.665	103	inactive
MS4A14	1	-0.416	73.6	-0.946	106	inactive
MS4A14	2	1.11	104	0.168	111	inactive
MS4A14	3	-0.356	74.8	-0.605	98	inactive
UBXN2A	1	-0.807	65.8	-1.06	97.1	inactive
UBXN2A	2	-1.14	59.2	-1.1	88.3	inactive
UBXN2A	3	1.81	118	1.12	98.1	inactive
NFYC	1	1.01	102	0.316	105	inactive
NFYC	2	2.44	130	2.77	70.3	inactive
NFYC	3	1.22	106	0.153	114	inactive
PPIAP66	1	-0.528	71.4	-0.601	93.4	inactive
PPIAP66	2	-0.145	79	0.745	72.6	inactive
PPIAP66	3	-1.05	61	-1.12	91.6	inactive
GDPD2	1	-1.1	60	-1.38	96.4	inactive
GDPD2	2	-2.25	37.1	-1.78	66.3	inactive
GDPD2	3	0.404	89.9	-0.00631	101	inactive
AOC1	1	0.4	89.8	-0.441	113	inactive
AOC1	2	0.833	98.5	0.72	91	inactive
AOC1	3	4.54	172	3.2	82.9	active
LHFPL4	1	1.68	115	0.645	109	inactive
LHFPL4	2	-0.762	66.7	1.17	54.8	inactive
LHFPL4	3	0.266	87.2	0.00387	97.3	inactive
DNM1	1	0.973	101	1.32	80	inactive
DNM1	2	2.08	123	1.54	91.6	inactive
DNM1	3	0.776	97.3	0.831	87.4	inactive
PYCR1	1	3.93	160	2.2	100	active
PYCR1	2	0.538	92.6	0.113	100	inactive
PYCR1	3	-0.536	71.2	-1.02	104	inactive

12 entries already listed, arranged by “viable cells, % of control”, ascending:
gene	reagent no.	total luciferase, z-score	total luciferase, % of control	luciferase per cell, z-score	viable cells, % of control	outcome
AIFM3	1	-2.02	41.6	-1.06	61.5	inactive
AIFM3	3	-2.66	28.9	-2.82	67.9	inactive
S100A12	1	-0.699	68	0.00738	75.8	inactive
S100A12	3	0.516	92.2	1.14	76.3	inactive
CHLSN	2	-0.414	73.6	-0.106	84.6	inactive
MTOR	3	-0.584	70.3	-0.412	87.5	inactive
ZNF354A	2	0.16	85.1	0.198	90.2	inactive
S100A12	2	0.624	94.3	0.561	90.9	inactive
AIFM3	2	0.987	102	0.686	94.7	inactive
CHLSN	1	0.567	93.2	0.352	94.9	inactive
ZNF354A	1	1.26	107	0.799	96.9	inactive
ZNF354A	3	0.838	98.6	-0.163	115	inactive
